Experimental data: PubChem BioAssay AID1671195 (Yale University, 2021)
Aim: 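Knockdowns that increase or decrease uptake of fluorescent LDL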 (primary screen). System: human Huh7 hepatoma cells. Reagent: siRNA pool against human genes, 18 nM. Duration: about 2 to 2.5 days of knockdown, then 8 h LDL uptake. Challenge: DiI-labelled LDL at 30 µg/ml for 8 h, in lipoprotein-deficient serum medium. Measured: 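Per-cell DiI-LDL intensity by automated imaging; well means scaled to the plate median and given as a robust z-score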. Direction: robust z-score: higher = more LDL uptake after knockdown. Rule for the call: 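a gene counts as active if at least two replicate z-scores exceed ±2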.
The whole screen tested about 22,000 reagents; shown is a part drawn at random. About 1,510 of all reagents (6.9%) were called active. 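Active includes knockdowns raising or lowering LDL uptake; positive z-scores mean more uptake, negative mean less.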 Entries without a mark were called inactive.

CAPN10 [SID442898701]
- robust z-score, replicate 1: -1.02
- robust z-score, replicate 2: -0.0591
- robust z-score, replicate 3: -0.508

TMEM200B [SID442895937]
- robust z-score, replicate 1: -0.195
- robust z-score, replicate 2: -0.0711
- robust z-score, replicate 3: -0.401

ALG14 [SID442889699]
- robust z-score, replicate 1: 0.416
- robust z-score, replicate 2: 0.561
- robust z-score, replicate 3: 0.585

CHRNA4 [SID442891594]
- robust z-score, replicate 1: 0.0229
- robust z-score, replicate 2: 0.299
- robust z-score, replicate 3: 0.478

MBD1 [SID442884945]
- robust z-score, replicate 1: 2.54
- robust z-score, replicate 2: 1.34
- robust z-score, replicate 3: 1.42

RCVRN [SID442890930]
- robust z-score, replicate 1: 0.397
- robust z-score, replicate 2: 0.445
- robust z-score, replicate 3: 0.215

ROBO4 [SID442895095]
- robust z-score, replicate 1: 0.67
- robust z-score, replicate 2: -0.602
- robust z-score, replicate 3: -0.465

SNW1 [SID442901840]
- robust z-score, replicate 1: -0.934
- robust z-score, replicate 2: -0.771
- robust z-score, replicate 3: -1.2

HMGCLL1 [SID442895186]
- robust z-score, replicate 1: 0.0299
- robust z-score, replicate 2: -1.11
- robust z-score, replicate 3: 0.646

ZMAT5 [SID442889994]
- robust z-score, replicate 1: 1.84
- robust z-score, replicate 2: -0.16
- robust z-score, replicate 3: -0.252

SNAI3 [SID442899444]
- robust z-score, replicate 1: -0.506
- robust z-score, replicate 2: -0.625
- robust z-score, replicate 3: -0.732

ANO6 [SID442890359]
- robust z-score, replicate 1: 0.981
- robust z-score, replicate 2: 0.343
- robust z-score, replicate 3: -0.0396

RSL24D1 [SID442893566]
- robust z-score, replicate 1: 0.0437
- robust z-score, replicate 2: 0.603
- robust z-score, replicate 3: -0.544

NUBPL [SID442903534]
- robust z-score, replicate 1: -1.41
- robust z-score, replicate 2: -1.41
- robust z-score, replicate 3: -1.14

PI3 [SID442898496]
- robust z-score, replicate 1: -0.387
- robust z-score, replicate 2: -0.573
- robust z-score, replicate 3: -0.558

PGAM1 [SID442895803]
- robust z-score, replicate 1: -0.279
- robust z-score, replicate 2: 0.0522
- robust z-score, replicate 3: -0.397

Next part; the last 2 above are carried over.
PI3 [SID442898496]
- robust z-score, replicate 1: -0.387
- robust z-score, replicate 2: -0.573
- robust z-score, replicate 3: -0.558

PGAM1 [SID442895803]
- robust z-score, replicate 1: -0.279
- robust z-score, replicate 2: 0.0522
- robust z-score, replicate 3: -0.397

ZNF117 [SID442897396]
- robust z-score, replicate 1: -0.174
- robust z-score, replicate 2: -0.309
- robust z-score, replicate 3: -0.66

ZNF117 [SID442903514]
- robust z-score, replicate 1: -1.16
- robust z-score, replicate 2: -1.27
- robust z-score, replicate 3: -1.52

CXCL3 [SID442885758]
- robust z-score, replicate 1: 0.621
- robust z-score, replicate 2: 1.66
- robust z-score, replicate 3: 1.87

PCDHA10 [SID442892057]
- robust z-score, replicate 1: 0.295
- robust z-score, replicate 2: 0.261
- robust z-score, replicate 3: 0.0827

H2AC1 [SID442896048]
- robust z-score, replicate 1: -0.496
- robust z-score, replicate 2: 0.0631
- robust z-score, replicate 3: -0.265

DIS3 [SID442895130]
- robust z-score, replicate 1: -0.426
- robust z-score, replicate 2: 0.261
- robust z-score, replicate 3: -0.247

ESPL1 [SID442886045]
- robust z-score, replicate 1: 1.72
- robust z-score, replicate 2: 1.41
- robust z-score, replicate 3: 0.717

LOC401307 (retired record) [SID442901621]
- robust z-score, replicate 1: -0.664
- robust z-score, replicate 2: -2.16
- robust z-score, replicate 3: 0.0399
